No constants are given. Whether binding was seen depends on the method and setting. In cells and extracts the contact can be indirect. A yes stands for co-enrichment or nearness to the bait. Other partners may have been found.
Assays:
Ubp3-TAP (S. pombe) = biological target: T1, Ubp3-TAP (S. pombe) (UniProt O94269); test: affinity purification with mass spectrometry; bait endogenously TAP-tagged at its C-terminus, tandem affinity purification from native S. pombe lysate, co-purified proteins identified by 2D LC-MS/MS; duplicates, only proteins found in both replicates
T1 sequence: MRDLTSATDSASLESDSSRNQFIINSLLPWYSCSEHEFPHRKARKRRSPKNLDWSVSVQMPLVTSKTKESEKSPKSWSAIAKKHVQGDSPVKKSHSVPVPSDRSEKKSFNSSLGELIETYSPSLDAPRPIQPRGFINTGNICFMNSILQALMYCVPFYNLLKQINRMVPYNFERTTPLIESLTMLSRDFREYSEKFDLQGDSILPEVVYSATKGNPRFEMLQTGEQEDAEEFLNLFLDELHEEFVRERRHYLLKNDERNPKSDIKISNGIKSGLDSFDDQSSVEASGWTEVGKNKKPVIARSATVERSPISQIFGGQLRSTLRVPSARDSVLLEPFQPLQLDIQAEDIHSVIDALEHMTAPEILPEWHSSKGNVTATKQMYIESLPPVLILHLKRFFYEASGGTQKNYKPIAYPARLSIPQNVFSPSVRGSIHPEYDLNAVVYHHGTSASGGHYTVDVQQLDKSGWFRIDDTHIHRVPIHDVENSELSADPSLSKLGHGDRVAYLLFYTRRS

Ubp4-TAP (S. pombe) = biological target: T2, Ubp4-TAP (S. pombe) (UniProt O60139); test: as above
T2 sequence: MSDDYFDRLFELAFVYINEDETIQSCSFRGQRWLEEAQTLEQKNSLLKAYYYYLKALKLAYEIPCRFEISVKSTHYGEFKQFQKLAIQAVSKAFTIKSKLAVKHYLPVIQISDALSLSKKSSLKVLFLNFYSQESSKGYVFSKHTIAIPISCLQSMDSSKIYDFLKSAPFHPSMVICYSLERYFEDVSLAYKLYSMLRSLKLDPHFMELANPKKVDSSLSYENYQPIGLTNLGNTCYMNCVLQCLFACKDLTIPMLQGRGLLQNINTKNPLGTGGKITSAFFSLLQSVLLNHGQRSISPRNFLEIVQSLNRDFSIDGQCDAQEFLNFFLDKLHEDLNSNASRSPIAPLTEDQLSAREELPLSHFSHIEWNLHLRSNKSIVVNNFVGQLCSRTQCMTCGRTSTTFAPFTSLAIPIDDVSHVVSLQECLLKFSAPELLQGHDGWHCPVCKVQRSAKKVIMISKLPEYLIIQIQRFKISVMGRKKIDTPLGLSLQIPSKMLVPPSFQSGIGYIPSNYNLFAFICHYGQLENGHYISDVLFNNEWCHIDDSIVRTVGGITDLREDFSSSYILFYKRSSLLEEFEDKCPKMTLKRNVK

Ubp15-TAP (S. pombe) = biological target: T3, Ubp15-TAP (S. pombe) (UniProt Q9UTT1); test: as above
T3 sequence: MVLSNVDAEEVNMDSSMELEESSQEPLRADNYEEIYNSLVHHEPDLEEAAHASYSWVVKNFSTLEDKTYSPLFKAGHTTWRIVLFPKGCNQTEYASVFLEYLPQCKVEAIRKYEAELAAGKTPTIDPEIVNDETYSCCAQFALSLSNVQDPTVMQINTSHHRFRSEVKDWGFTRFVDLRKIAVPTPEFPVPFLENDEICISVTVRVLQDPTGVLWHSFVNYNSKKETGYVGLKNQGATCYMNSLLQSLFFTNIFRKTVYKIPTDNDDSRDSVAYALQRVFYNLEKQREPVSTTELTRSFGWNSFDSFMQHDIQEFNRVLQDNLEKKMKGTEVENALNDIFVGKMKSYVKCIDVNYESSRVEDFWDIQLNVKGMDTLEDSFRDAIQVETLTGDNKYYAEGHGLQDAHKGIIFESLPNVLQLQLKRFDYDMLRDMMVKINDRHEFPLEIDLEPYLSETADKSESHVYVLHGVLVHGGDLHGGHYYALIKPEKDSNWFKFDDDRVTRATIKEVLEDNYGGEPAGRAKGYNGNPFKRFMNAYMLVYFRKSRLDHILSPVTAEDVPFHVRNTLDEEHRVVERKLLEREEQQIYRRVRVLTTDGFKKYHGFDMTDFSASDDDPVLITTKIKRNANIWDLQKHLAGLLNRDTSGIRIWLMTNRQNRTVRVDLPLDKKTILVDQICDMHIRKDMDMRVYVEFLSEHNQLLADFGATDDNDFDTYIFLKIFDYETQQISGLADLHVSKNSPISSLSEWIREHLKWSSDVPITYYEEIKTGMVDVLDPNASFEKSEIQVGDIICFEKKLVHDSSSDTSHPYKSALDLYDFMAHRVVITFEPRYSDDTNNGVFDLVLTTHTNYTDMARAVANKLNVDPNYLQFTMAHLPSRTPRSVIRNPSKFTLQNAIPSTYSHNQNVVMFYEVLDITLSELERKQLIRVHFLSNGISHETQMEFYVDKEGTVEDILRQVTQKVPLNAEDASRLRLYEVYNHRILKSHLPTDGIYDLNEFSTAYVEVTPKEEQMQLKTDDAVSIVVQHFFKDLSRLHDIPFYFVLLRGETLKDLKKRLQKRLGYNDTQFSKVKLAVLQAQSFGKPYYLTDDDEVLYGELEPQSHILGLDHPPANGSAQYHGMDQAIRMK

Ubp9-TAP (S. pombe) = biological target: T4, Ubp9-TAP (S. pombe) (UniProt Q9P7V9); test: as above
T4 sequence: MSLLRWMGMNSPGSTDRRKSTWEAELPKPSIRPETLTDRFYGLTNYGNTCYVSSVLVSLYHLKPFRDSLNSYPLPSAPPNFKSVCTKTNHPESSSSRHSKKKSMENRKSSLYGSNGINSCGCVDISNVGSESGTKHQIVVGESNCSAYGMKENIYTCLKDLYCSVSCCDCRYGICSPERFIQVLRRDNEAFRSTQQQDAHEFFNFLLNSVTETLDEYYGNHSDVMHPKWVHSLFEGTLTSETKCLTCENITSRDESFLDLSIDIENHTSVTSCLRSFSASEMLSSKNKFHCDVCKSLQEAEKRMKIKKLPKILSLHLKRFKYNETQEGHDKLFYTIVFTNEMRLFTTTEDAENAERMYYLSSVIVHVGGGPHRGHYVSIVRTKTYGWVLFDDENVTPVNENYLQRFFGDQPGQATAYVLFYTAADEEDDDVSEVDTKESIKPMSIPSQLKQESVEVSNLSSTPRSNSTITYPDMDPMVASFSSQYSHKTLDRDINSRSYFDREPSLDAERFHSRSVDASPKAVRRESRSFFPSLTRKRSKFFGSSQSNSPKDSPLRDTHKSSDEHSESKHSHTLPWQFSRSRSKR

TAP-Ubp11 (S. pombe) = biological target: T5, TAP-Ubp11 (S. pombe) (UniProt Q9UUD6); test: affinity purification with mass spectrometry; bait N-terminally TAP-tagged, expressed at low levels from the nmt81 promoter (pREP81-TAP), tandem affinity purification from native S. pombe lysate, 2D LC-MS/MS; duplicates
T5 sequence: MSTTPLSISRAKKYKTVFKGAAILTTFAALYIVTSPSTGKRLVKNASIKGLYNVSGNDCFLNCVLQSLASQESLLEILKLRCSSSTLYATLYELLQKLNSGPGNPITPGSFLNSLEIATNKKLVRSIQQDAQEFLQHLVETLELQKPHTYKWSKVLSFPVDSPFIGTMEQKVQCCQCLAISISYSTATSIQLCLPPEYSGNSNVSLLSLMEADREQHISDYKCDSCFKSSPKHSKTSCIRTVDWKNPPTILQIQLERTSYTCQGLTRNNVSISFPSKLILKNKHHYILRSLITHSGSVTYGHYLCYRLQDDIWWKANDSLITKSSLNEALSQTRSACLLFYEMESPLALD

B1: Nxt3 (protein, UniProt O94260 1-434)
chain: MTAENATLLEPVLGKDEIGWMFVQEYYTYLNKEPNRLHCFYTKKSTLIHGDEGESISLCHGQQEIHNKILDLDFQNCKVLISNVDSLASSNGGIVIQVLGEMSNKGKLSRKFAQTFFLAEQPNGYFVLNDIFRFLREDVEEEEESPDAVEKEKKDVASEPYVNGVQSQEHLPSAKEEGHYQDPAATENNFATAALISNETDSLNQATLAVPEEPVIQVTEASVPSFVSQQENQLQDEALTSNSKNADAIGASDANVATAPKSWADLIARNHPDVKSQASVSSTASTTGQTVKGVNADQTQQPTAPYTQSNELLETSVFVKNIPPETSDVSLKSAMSIFGPVKAIEFARRKGTAYVDFVNHECVQLALNKKTLQINNATLNIEERRRLFSGKFNKSGDKKSNDNYNGMKRNFRKGNRGAFDGRSKEVTTSKKQNN
- binding (Ubp3-TAP (S. pombe)): binds

B2: Sfp47 (SH3 domain Ubp4 partner of 47 kDa) (protein, UniProt O14259 1-415)
chain: MNSFSSNEYSTEISTEALNNWQQLVEQRISLELEYAAKLAKLTKSIKAIKQCAPLNDLTKQVCVELMQCNKKHLEASRYFQTHVKEFMKEYVDRENKFSNETISKSSAAALMTSMENFILFTNPVYHNKLQVPSKSDMEIANSLKITQPAEKNSGTANPISAYSLEHAELDERNNQLSEALSMLRLSPFVNNYYPSYQNRKDGKSLMENRGVVLSVDTVTSPISQSPKKLTPTTSPINSTSLSFVDAKKPGSKWPSQYDFPKKTKSTEIPFKTLPSLNINNERELTKHKLPIVKPKLAVFPSNQATASTLQLAPPPVQAIPTLRNPVNLDDKKESLLKYYATHPTITPDGFPIFAYVRALYAYKATLPSEIDLNVDDTLVVLNRQKDGWWKGLVVSPTVGRIGLFPSNYIEELEY
- binding (Ubp4-TAP (S. pombe)): binds

B3: Bun62 (binding Ubp9 of 62 kDa) (protein, UniProt Q10437 1-543)
chain: MQTMSSGIARPVLFLTAREGEYVLKDEFQLGSSSRSTPQITGSPLDPNTPVKRLFFMRINIAQFSRWDYPYPREYIEELKKIHGVHHVEENRDVPSILENYRNSKRKSHNFSSSNTPYLKLHRPASRAGAPLINAKSFISSLTFHDNIVRSFQPSIHGKTFVFANHEKSFYWLDVSAANSHSALLKMEFPRASPVCHDINSFTKSPKGLDVIIGFDTGDVLWYDPINFKYLRFNKNGQLNSSSVTAIKWVAGKDSQFLVSFRNGWLVLYDKYRHEQPLHIVVPEKNLKSLYLSSPGTFNILISINHRDDRKLNPVACYAFSKSPINGFCFSPDYQYLALVSERGTLKLFDFVKEHVLDVFHSYFAGLTCVTWSPDGKFIAIGGKDDLVSIYSFPLRKLVARCQGHKSWVTDVIFDAWRCDDDNYRIASVGLDRKLLLWDFSVSAIHRPKSAVYYVNHHSNNSKPAISDFDDVGDLTMGSEIDNSNYVNGDITIHPTLSRSLIPVISPITIYDVDDSPLSSVFFDPDCMITCATNGRIRTWQRP
- binding (Ubp15-TAP (S. pombe)): binds
- binding (Ubp9-TAP (S. pombe)): binds

B4: Tom70 (protein, UniProt O14217 1-625)
chain: MSGISNAENGKAIVSSGVLNSVSAFVRRHRTFVYTIGAVAVFATVGGVYHVQQKKASHKRSKKLKAHQDKAESKVNEGKNEAAKVVKEEDLKSSETGKDVETAAAAAAAAKKKKKNKKKVKAKKVGDSSVDKIATEESVKSMTKEERAKLAAELKTLGNKAYGQKEYANAIDYYTQAITCSHDPIFFSNRAACYAAIGDFEQVIKDTSEALSLDSSYVKALNRRSAAYEQLGKLDEALMDSTVSCIFDGFANESMTATVERLLKKVAEKKSSALLKERPPKLPAASFIQTYLDSFHAQPKPLFDNKFDGDAALAEAYEYLEKGEYQLSYDKAKESCLGSFSSPSVNARTHNLVGTFKFVSGDSKGSMENFNAAIKLDRKFIQPYIRLSAAYLDENDNEKMWKVLNDAESVDKTDSDLYYHRAQVRFVSGEFAEAISDYQKSIALDDSFIYSHIQLGVAQYKTHAIAESMKTFEDCKKRFPNSSEVYNYFGEILLDQQKFDDAVKNFDHAIELEKREHLTIMSAMPLINKALAVFQWKKDISQAENLCRQALSADPECDIAIASMAQFLLQQGKAREALEYFEKSAQLARTESEMVNAFSYAEATRTQIALTEKYPQLVGRLSNPM
- binding (TAP-Ubp11 (S. pombe)): binds
